Among the data in the supplement of paper PMC12819154, “High-throughput peptide-centric local stability assay extends protein–ligand identification to membrane proteins, tissues and bacteria” (Nature Structural & Molecular Biology, 2025) are log2 fold change values, retold here.

Protein sequences, listed by entry. Tags and fused reporters are not part of them. Lines headed by an entry give the natural chain unless they say otherwise; changes in a name come on top.
UniProt P48681: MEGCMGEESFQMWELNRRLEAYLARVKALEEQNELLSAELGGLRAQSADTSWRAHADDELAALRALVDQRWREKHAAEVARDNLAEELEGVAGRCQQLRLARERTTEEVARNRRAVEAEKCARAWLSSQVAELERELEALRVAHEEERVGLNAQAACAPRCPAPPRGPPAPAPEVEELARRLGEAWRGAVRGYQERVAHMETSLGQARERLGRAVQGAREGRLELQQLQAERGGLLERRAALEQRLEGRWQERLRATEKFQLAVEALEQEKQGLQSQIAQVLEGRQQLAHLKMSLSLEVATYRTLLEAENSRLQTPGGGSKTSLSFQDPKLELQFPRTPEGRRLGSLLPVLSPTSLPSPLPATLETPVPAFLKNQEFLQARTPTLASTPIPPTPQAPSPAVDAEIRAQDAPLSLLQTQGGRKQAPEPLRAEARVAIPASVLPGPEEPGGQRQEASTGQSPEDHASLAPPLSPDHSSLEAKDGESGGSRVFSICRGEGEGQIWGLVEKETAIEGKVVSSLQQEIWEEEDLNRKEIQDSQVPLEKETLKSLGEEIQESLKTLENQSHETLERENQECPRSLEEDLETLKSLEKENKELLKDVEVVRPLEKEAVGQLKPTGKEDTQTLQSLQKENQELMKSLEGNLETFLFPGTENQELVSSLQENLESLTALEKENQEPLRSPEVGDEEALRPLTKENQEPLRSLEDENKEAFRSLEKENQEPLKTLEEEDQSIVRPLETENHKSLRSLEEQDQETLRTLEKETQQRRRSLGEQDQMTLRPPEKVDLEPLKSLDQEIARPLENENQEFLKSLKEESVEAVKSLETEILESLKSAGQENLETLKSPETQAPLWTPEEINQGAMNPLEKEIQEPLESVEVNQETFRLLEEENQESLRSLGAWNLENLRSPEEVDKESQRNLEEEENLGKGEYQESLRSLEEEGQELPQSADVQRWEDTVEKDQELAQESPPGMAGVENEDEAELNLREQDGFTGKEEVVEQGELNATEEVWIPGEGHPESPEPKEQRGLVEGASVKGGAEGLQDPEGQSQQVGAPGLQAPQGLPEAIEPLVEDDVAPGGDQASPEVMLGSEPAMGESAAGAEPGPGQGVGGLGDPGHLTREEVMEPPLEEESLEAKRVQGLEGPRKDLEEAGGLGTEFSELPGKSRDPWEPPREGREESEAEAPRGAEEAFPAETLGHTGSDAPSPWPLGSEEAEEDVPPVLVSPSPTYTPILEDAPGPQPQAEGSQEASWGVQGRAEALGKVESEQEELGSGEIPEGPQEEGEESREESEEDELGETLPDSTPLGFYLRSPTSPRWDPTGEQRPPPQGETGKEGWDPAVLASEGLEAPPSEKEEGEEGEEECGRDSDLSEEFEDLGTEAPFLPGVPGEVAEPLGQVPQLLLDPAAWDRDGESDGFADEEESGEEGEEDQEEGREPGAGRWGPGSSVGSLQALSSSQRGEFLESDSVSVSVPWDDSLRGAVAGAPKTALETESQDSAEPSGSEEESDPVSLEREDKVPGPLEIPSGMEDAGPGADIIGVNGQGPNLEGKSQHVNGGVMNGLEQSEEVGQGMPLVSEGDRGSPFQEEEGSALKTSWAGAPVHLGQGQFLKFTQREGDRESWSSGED
UniProt P52272: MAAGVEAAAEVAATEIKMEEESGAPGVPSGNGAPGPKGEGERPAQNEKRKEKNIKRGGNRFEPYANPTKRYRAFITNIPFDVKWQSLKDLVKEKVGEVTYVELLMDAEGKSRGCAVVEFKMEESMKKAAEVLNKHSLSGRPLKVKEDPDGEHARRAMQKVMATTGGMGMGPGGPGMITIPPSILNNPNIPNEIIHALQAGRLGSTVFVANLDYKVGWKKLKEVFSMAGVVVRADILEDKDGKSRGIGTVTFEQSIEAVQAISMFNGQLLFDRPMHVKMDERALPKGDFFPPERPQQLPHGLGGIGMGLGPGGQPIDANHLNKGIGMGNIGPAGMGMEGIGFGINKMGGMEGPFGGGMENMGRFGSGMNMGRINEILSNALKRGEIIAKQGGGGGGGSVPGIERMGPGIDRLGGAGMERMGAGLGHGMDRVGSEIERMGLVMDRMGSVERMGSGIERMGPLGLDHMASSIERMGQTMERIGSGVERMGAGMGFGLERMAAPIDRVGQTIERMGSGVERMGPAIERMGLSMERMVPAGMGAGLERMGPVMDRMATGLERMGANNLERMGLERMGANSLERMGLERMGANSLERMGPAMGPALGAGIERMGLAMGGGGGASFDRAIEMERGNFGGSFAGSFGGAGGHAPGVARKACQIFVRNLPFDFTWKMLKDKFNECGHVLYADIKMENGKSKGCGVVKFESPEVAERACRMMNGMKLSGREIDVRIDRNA
UniProt P50135: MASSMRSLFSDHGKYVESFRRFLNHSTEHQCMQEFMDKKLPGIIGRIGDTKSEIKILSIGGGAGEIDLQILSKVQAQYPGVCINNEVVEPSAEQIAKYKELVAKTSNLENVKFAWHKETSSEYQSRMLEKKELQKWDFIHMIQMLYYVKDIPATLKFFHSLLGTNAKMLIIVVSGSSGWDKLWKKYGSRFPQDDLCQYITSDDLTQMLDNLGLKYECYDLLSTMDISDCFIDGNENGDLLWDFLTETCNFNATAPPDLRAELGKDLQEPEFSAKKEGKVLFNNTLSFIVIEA
UniProt P51911: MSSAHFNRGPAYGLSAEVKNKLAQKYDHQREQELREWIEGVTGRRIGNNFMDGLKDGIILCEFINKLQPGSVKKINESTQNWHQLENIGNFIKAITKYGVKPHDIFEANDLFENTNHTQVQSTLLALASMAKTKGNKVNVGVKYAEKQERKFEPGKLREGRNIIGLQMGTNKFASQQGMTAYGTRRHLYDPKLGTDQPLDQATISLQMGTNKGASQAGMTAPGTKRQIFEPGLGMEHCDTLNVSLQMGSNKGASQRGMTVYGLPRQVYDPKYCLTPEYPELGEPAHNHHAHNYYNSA
UniProt P49842: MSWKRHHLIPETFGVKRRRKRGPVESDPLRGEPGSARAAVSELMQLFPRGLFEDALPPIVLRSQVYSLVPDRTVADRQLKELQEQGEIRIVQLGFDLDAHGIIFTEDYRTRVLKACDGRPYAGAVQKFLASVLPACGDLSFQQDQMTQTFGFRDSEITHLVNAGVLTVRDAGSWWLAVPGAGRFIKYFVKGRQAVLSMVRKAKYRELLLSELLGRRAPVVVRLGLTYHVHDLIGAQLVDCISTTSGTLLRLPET
UniProt P53667: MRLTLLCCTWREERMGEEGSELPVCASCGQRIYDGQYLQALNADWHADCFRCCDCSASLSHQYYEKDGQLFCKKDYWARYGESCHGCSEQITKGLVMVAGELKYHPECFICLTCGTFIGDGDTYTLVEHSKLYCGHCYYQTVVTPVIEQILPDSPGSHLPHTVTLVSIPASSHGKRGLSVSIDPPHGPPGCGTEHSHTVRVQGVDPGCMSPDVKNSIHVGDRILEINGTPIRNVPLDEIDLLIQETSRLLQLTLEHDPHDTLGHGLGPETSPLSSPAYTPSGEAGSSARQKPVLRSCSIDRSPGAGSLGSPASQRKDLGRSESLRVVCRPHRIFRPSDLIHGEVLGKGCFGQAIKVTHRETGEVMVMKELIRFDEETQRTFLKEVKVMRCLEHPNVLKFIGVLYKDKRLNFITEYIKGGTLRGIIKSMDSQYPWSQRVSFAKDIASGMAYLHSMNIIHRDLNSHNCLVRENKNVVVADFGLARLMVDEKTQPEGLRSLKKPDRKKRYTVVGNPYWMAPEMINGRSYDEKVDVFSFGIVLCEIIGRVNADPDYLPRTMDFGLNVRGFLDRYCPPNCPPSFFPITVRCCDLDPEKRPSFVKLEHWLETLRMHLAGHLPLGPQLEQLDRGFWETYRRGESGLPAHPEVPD
UniProt P47974: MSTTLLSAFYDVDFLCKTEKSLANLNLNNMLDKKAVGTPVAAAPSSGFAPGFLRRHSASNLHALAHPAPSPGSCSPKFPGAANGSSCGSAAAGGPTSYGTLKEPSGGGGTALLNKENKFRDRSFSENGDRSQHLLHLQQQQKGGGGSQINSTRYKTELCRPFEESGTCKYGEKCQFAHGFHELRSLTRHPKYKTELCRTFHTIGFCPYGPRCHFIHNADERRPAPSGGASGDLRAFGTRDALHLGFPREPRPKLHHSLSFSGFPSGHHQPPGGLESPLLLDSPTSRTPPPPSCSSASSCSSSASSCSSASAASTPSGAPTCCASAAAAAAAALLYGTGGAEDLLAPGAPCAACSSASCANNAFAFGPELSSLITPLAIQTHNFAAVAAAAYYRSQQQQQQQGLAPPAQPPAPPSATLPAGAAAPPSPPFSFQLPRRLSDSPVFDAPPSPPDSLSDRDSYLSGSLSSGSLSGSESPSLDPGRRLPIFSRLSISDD
UniProt P48729: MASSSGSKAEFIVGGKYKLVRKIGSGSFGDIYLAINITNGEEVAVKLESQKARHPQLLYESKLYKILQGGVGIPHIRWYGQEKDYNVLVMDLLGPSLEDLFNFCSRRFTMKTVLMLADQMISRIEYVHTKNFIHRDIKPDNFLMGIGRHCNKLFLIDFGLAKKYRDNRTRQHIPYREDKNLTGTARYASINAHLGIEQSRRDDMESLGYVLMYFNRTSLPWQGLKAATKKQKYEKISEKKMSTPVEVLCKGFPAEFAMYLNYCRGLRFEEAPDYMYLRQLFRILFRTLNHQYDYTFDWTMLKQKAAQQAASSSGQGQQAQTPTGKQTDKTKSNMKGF
UniProt P48552: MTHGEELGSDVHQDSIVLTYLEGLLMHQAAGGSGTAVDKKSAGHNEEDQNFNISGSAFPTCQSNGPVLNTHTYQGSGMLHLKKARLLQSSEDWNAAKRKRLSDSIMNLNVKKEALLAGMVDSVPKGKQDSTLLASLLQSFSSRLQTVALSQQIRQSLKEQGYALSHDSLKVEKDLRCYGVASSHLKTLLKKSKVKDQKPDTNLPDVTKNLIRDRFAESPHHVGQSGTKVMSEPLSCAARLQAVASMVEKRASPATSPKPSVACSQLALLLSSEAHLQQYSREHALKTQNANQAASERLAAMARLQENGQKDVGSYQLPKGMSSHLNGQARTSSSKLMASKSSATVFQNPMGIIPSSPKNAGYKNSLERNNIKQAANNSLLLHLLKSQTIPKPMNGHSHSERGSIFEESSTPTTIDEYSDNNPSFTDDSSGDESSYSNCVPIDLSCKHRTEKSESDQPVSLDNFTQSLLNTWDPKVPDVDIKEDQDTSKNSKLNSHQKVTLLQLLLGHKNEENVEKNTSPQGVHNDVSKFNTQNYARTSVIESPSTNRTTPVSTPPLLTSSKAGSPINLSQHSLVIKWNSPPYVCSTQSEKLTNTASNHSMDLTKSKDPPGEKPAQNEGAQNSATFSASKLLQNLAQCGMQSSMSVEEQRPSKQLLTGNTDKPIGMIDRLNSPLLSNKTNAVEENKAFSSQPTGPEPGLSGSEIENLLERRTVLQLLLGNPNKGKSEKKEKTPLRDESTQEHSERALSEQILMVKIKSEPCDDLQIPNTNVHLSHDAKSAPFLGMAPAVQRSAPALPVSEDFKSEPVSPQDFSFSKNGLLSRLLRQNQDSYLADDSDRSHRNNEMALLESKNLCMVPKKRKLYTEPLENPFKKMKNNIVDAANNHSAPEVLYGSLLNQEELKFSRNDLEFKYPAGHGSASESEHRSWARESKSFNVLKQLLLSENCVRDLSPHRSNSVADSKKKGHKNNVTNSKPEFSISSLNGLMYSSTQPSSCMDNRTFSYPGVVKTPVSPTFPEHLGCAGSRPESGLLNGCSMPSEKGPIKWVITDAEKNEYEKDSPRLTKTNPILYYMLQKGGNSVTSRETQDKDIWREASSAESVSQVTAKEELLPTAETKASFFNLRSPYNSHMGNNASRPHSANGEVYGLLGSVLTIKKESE
UniProt P54577: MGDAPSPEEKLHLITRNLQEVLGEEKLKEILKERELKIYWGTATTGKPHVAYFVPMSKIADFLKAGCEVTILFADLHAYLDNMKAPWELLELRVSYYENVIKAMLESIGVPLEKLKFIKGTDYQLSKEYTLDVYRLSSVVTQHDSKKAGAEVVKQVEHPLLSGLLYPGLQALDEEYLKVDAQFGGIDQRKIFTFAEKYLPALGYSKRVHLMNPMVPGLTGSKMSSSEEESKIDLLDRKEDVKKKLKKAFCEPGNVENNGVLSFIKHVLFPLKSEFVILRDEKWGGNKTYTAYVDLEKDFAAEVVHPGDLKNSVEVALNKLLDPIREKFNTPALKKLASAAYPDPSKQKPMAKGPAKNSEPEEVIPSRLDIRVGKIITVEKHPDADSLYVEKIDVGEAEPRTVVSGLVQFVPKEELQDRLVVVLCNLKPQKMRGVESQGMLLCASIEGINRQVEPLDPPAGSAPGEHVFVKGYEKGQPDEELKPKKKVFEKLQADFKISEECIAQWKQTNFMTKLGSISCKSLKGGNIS
UniProt P51809, whole entry: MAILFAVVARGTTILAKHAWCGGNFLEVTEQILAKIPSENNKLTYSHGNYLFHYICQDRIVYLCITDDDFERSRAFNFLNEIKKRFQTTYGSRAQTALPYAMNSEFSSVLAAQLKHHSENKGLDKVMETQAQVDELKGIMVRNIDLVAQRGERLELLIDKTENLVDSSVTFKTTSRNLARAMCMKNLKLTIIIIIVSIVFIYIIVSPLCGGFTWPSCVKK

The list shows a part of the results. Most entries show no effect beyond the scatter of the controls.

Compound in this assay: Cc1nc(Nc2ncc(C(=O)Nc3c(C)cccc3Cl)s2)cc(N2CCN(CCO)CC2)n1 [dasatinib]
Put plainly: log2 fold change of tryptic peptide abundance, ligand vs vehicle (limited proteolysis) (log2 ratio); higher = more trypsin-susceptible (destabilized). Particulars: ligand concentration: 5 uM; sample: K562 cleared lysate.
Regarding “UTRN (peptide sequence: FQLFQKPANFEQR, peptide start residue: 1431) (UniProt P46939)”, the log2 fold change was 0.462.
Consider “RPIA (peptide sequence: AGGAASGGGGNSWDLPGSHVR, peptide start residue: 22) (UniProt P49247)”, for which the log2 fold change was found to be 0.0224.
In the case of “UniProt P51784 (peptide sequence: DGHYTTFACNK, peptide start residue: 886)”, the log2 fold change turned out to be 0.121.
With “NES (peptide sequence: SLGAWNLENLR, peptide start residue: 894) (UniProt P48681)”, the log2 fold change is -0.147.
The result for “SULT1A1 (peptide sequence: NAKDVAVSYYHFYHMAK, peptide start residue: 131) (UniProt P50225)” reads 0.202; that for “HNRNPM (peptide sequence: EVFSMAGVVVR, peptide start residue: 222) (UniProt P52272)”, -0.311.
The result for “UniProt P48634 (peptide sequence: GIPPEEPGAPPR, peptide start residue: 936)” reads -0.274; that for “RBM25 (peptide sequence: LVPLDYGEDDKNATK, peptide start residue: 712) (UniProt P49756)”, -0.225.
Take “RPL29 (peptide sequence: EVKPKIPK, peptide start residue: 80) (UniProt P47914)”: the log2 fold change is -1.04.
To “HNMT (peptide sequence: AELGKDLQEPEFSAK, peptide start residue: 260) (UniProt P50135)” belongs -0.39.
Consider “PEX5 (peptide sequence: WYDEYHPEEDLQHTASDFVAK, peptide start residue: 184) (UniProt P50542)”, for which the log2 fold change amounted to 0.169.
The result for “CNN1 (peptide sequence: GPAYGLSAEVK, peptide start residue: 9) (UniProt P51911)” reads -0.0923; that for “STK19 (peptide sequence: DSEITHLVNAGVLTVR, peptide start residue: 268) (UniProt P49842)”, 0.304.
To “KNTC1 (peptide sequence: HCGKPVPPDTAPCEILK, peptide start residue: 2186) (UniProt P50748)” belongs 0.392.
For “LIMK1 (peptide sequence: TMDFGLNVR, peptide start residue: 556) (UniProt P53667)”, the log2 fold change was -0.475.
Turning to “ZFP36L2 (peptide sequence: DALHLGFPR, peptide start residue: 240) (UniProt P47974)”, the log2 fold change was -0.109.
The result for “STAT2 (peptide sequence: ILQETLNELDKR, peptide start residue: 198) (UniProt P52630)” reads 0.58; that for “UniProt P48729 (peptide sequence: TSLPWQGLK, peptide start residue: 217)”, 0.276.
Regarding “PPT1 (peptide sequence: TLNAGAYSK, peptide start residue: 166) (UniProt P50897)”, the log2 fold change stood at 0.0715.
The result for “AARS (peptide sequence: ASEWVQQVSGLMDGKGGGK, peptide start residue: 916) (UniProt P49588)” reads 0.325; that for “UniProt P51955 (peptide sequence: ILNHDTSFAK, peptide start residue: 165)”, -0.319; that for “RPL5 (peptide sequence: YLMEEDEDAYKKQFSQYIK, peptide start residue: 210) (UniProt P46777)”, 0.303.
Consider “SEPHS1 (peptide sequence: YGEGHQAWIIGIVEKGNR, peptide start residue: 345) (UniProt P49903)”, for which the log2 fold change was -0.351.
Consider “NRIP1 (peptide sequence: VMSEPLSCAAR, peptide start residue: 229) (UniProt P48552)”, for which the log2 fold change is -0.443.
For “PRKX (peptide sequence: LFWTWHDER, peptide start residue: 112) (UniProt P51817)”, the log2 fold change was 0.362.
Turning to “YARS (peptide sequence: APWELLELR, peptide start residue: 85) (UniProt P54577)”, the log2 fold change was -0.182.
The result for “VAMP7 (peptide sequence: AILFAVVAR, peptide start residue: 2) (UniProt P51809)” reads -0.299.
